Reference: article PMC9102726
Results are given in words; binding and its absence hold for the method and conditions named. Binding seen in cells or lysates may run through a third protein. Here binding means that the protein was enriched with, or labelled near, the bait; the list need not be complete.

By UniProt entry, the sequences of proteins in these tests, tags left out.
UniProt P09429: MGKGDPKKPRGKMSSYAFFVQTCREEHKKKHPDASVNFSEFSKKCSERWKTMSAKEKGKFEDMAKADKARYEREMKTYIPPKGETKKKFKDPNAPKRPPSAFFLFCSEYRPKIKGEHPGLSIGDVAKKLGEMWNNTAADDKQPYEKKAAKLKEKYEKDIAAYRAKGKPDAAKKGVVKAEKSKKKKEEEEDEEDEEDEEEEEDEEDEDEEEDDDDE

Biological target: Valosin-containing protein (VCP), exogenous, in MHCC-LM3 cells (UniProt P55072)
Test: affinity purification with mass spectrometry; VCP immunoprecipitated from MHCC-LM3 cells treated with exogenous VCP; SDS-PAGE, Coomassie staining, bands cut and analysed by LC-ESI-LTQ-Orbitrap MS

- binding: binds
Substance: High-mobility group box 1 (HMGB1), endogenous (from UniProt P09429 1-215)
